Some entries share one result that the patent states for a list of compounds. Ends that are not written are not given here.
Target: T1, Fc region prepared by digesting human monoclonal antibody IgG with papain (Homo sapiens, UniProt P01857)
T1 construct: The Fc region to be immobilized to a sensor chip was prepared, by digesting human monoclonal antibody IgG with papain; made in house; host or cells: papain digest of human monoclonal IgG (Pierce Fab Preparation Kit), then MabSelect SuRe, HiTrap DEAE and Superdex 200
Experiment: Surface plasmon resonance, polypeptides on immobilized Fc region prepared from human monoclonal IgG (Example 2, 3) and 4); Example 8)
Assay type: binding
Details: relative to p17
Procedure: The polypeptides, which were previously synthesized in an organic chemical manner were purchased from bio[…], were diluted with HBS-T buffer and controlled so as to have a concentration of 500, 400, 300, 200 or 100 nM. The surface plasmon resonance test was performed by using Biacore T100 (GE Healthcare). The Fc region to be immobilized to a sensor chip was prepared, by digesting human monoclonal antibody IgG with papain, in accordance with the instruction attached to Pierce (registered trade mark) Fab Preparation Kit (Thermo […]), followed by purifying by affinity chromatography using MabSelect SuRe (GE Healthcare), HiTrap DEAE anion exchange chromatography (GE Healthcare) and gel filtration chromatography using Superdex 200 (GE Healthcare). […] The binding activity of the synthesized peptides prepared was measured and equilibrium dissociation constants were determined. […]
4) In this section, it will be stated as an example that the binding activity of a polypeptide consisting of an amino acid sequence (referred to as p17) of SEQ ID NO: 57 was measured by surface plasmon resonance. […]
Subsequently, the binding activity of p17 prepared was measured by surface plasmon resonance by use of Biacore T100 (GE Healthcare).
Subsequently, the binding activity of five types of polypeptides prepared above was analyzed by surface plasmon resonance. […]

GPGISAFSPGRGVYDPETGTWYDAAWHLGELVWATYYDPETGTWEPDAQRMLGQ [SEQ ID NO: 176]
binding activity values decreased: ≥ 100 times

GPGISAFSPGRGVYDPETGTWYDAAWHLGELVWATYYDPETGTWEPDWQRALGQ [SEQ ID NO: 178]
binding activity values decreased: ≥ 100 times

Reference: patent publication US9605029B2, “Antibody-binding peptide” (NATIONAL INSTITUTE OF ADVANCED INDUSTRIAL SCIENCE AND …, priority 2013, dated 2017)
